Laboratory results reported in article PMC4280201.
Results are given in words; binding and its absence hold for the method and conditions named. In cells and extracts the contact can be indirect. Binding calls can cover weak binding; strength is not graded here.

Protein sequences, listed by entry. Tags and fused reporters are not part of them. Lines headed by an entry give the natural chain unless they say otherwise; changes in a name come on top.
UniProt Q9BST9: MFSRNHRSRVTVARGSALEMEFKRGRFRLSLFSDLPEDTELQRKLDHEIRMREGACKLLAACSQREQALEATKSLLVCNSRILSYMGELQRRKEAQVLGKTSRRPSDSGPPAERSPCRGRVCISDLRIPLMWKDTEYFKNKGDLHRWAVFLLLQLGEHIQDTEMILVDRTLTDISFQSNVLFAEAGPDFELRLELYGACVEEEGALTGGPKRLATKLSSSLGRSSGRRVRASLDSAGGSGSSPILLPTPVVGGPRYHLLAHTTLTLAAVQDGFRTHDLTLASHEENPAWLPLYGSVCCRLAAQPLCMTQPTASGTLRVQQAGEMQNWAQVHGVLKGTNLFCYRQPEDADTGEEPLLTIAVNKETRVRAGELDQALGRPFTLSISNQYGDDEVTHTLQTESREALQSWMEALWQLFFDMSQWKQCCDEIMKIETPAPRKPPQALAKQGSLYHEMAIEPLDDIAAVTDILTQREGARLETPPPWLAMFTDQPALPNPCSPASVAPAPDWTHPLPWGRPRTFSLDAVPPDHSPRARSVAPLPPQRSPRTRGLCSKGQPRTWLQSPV
UniProt P62745: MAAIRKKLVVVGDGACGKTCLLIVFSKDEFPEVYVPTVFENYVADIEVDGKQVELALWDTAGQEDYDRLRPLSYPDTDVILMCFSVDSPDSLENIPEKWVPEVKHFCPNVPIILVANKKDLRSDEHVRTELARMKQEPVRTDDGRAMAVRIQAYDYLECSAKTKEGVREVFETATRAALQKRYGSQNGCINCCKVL

Biological target: Rho-binding domain (RBD) of Rhotekin on agarose beads (UniProt Q9BST9)
Test: pull-down; Rhotekin RBD agarose beads (RhoB activation assay kit, Cell Biolabs) incubated with lysates of AdTRβ-infected BHP18-21v cells treated with or without 30 nM T3 and/or 5 µM FTI for 24 h; RhoB in the precipitates detected by Western blot; only the target purified

binding: binds
Substance: RhoB (active GTP-bound form) (from UniProt P62745 1-196)
